Data as given in PubChem BioAssay AID624297 (National Center for Advancing Translational Sciences (NCATS), 2012).
The campaign covered roughly 340,000 compounds. About 6,200 (1.8%) were called active. The shares of active, inactive and inconclusive entries below differ from those in the screen. Calls follow the shape of the dose curve; as a rule, active = well fitted activation curve with a large enough effect; inconclusive = small, poorly fitted or top-dose-only effect; inactive = no such curve, though single readings can be large or run the other way. Potencies beside an inconclusive call are fits to weak or partial responses and may not hold up.

Assay: A quantitative high throughput screen for small molecules that induce DNA re-replication in SW480 colon adenocarcinoma cells. Also: nearly all actives have a fitted effect of over 55% in size. As to re-replication activation: % of control where 0% means no effect.
Details: Hoechst DNA content imaging, 48 h; re-replication activation: at 46.1 µM (top of the series) unless noted
How it was run: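 First, 250 cells per well were seeded. Next, compound or vehicle (23 nL) was pinned in, plates sat 48 hr at 37 C. Finally Hoechst was added for 40 min before fluorescence scanning.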
Potency is read from the fitted curve at half-maximal effect.

SMILES | Potency | re-replication activation
CCCCc1ccc(NC(=O)C2CCN(S(C)(=O)=O)CC2)cc1 | inconclusive: 29.1 µM [activator, single point] | –
CC(C)Oc1ccc(CN2CCCC(CO)(Cc3ccc(F)cc3)C2)cc1 (stereo unspecified) | inconclusive: 18.4 µM [activator, single point] | –
N/C(=N\OC(=O)c1ccc([N+](=O)[O-])cc1)c1ccccn1 | inconclusive: 1.03 µM [activator, single point] | –
Cc1cc(C)nc(NC(=O)/C=C/c2ccccc2Cl)c1 | – | inactive: -2.41%
CCOc1ccc(N2C(=O)C(=O)/C(=C(/O)c3ccccc3)C2c2ccccc2[N+](=O)[O-])cc1 (stereo unspecified) | inconclusive: 18.4 µM [activator, single point] | –
CS(=O)(=O)c1ncc(Cl)c(C(=O)Nc2ccc(OC(F)F)cc2)n1 | active: 1.84 µM | –
CCn1cc(C(=O)NCc2ccc3c(c2)OCO3)c(=O)c2cc(F)c(N3CCN(C(=O)c4ccco4)CC3)cc21 | inconclusive: 25.9 µM [activator, single point] | –
CC(=O)N(C)c1nc(N)n(-c2ccccc2)n1 | inconclusive: 18.4 µM [activator, single point] | –
CC1(C)OC(=O)C(=NNc2ccc(C(=O)O)cc2)C(=O)O1 | inconclusive: 29.1 µM [activator, single point] | –
O=C(Cc1ccc(F)cc1)NCCc1ccccc1 | – | inactive: -4.18%
COc1cccc(NC(=O)CN(C)C(=O)c2ccccc2Sc2ccccc2C#N)c1 | inconclusive: 3.66 µM [activator, full curve] | –
CCc1nc(N2CCCCC2C(=O)O)c2oc3ccccc3c2n1 (stereo unspecified) | – | inactive: -12.5%
CCCOc1cccc(C2C(C(=O)c3ccc(C)o3)=C(O)C(=O)N2c2nc(C)c(C(C)=O)s2)c1 (stereo unspecified) | inconclusive: 2.06 µM [activator, partial curve, poor fit] | –
CCOC(=O)c1c(CS(=O)(=O)c2ccccc2)n(C)c2cc(Br)c(O)cc12 | inconclusive: 18.4 µM [activator, single point] | –
Cc1ccc(NC(=O)CC2S/C(=N/c3nccs3)N(C)C2=O)cc1C (stereo unspecified) | inconclusive: 32.6 µM [activator, partial curve, poor fit] | –
O=C(NNC(=O)c1ccc(Cl)cc1Cl)c1csc(-c2cccnc2)n1 | inconclusive: 29.1 µM [activator, single point] | –
O=C(CSC1=NNC(c2ccccn2)S1)Nc1cccc(Cl)c1 (stereo unspecified) | inconclusive: 11.6 µM [activator, partial curve, poor fit] | –
Cc1cc(C(=O)N/N=C/c2ccc([N+](=O)[O-])o2)c(C)o1 | inconclusive: 7.31 µM [activator, partial curve, poor fit] | –
CN1CCC23c4ccccc4NC1C21CCN(C)C3Nc2ccccc21 | – | inactive: -82.3%
Cc1ccsc1/C=C/c1ccc2cccc(O)c2n1 | inconclusive: 29.1 µM [activator, single point] | –
CC(C)N(CCNC(=O)COc1ccc2oc3c(c2c1)CCCC3)C(C)C | inconclusive: 11.6 µM [activator, single point] | –

Single values from above.
Potency with CC(=O)N(C)c1nc(N)n(-c2ccccc2)n1 is entered as inconclusive: 18.4 µM [activator, single point]
Potency with Cc1ccc(NC(=O)CC2S/C(=N/c3nccs3)N(C)C2=O)cc1C (stereo unspecified) is entered as inconclusive: 32.6 µM [activator, partial curve, poor fit]

Remaining list, next part

SMILES | Potency | re-replication activation
COc1ccccc1N=Nc1c(O)[nH]c2ccc(Br)cc12 | – | inactive: 2.87%
COc1cccc(CN2CCN(c3ccc(F)cc3)C2=O)c1 | inconclusive: 0.058 µM [activator, partial curve, poor fit] | –
CCOC(=O)c1ccc(NC(=O)COC(=O)c2cccc(Oc3ccccc3)c2)cc1 | – | inactive: -7.45%
O=C(Nc1ccccc1)N1N=C(c2ccc(F)cc2)CC1c1ccc(F)cc1 (stereo unspecified) | – | inactive: -55%
CC(C)C(=O)Nc1cccc(NC(=S)NC(=O)C(c2ccccc2)c2ccccc2)c1 | inconclusive: 18.4 µM [activator, single point] | –
Cc1cccc2sc(NC(=O)CN3C(=O)NC4(CCCC4)C3=O)nc12 | inconclusive: 29.1 µM [activator, single point] | –
CC1Cc2ccccc2N1S(=O)(=O)c1cccc(C(=O)N2CC(=O)Nc3ccccc32)c1 (stereo unspecified) | inconclusive: 25.9 µM [activator, single point] | –
COC(=O)c1ccc(NC(=O)CCC(=O)c2ccc(F)cc2)cc1 | – | inactive: -17.9%
Cn1c(/C=C/c2cccc([N+](=O)[O-])c2)c([N+](=O)[O-])c(=O)n(C)c1=O | inconclusive: 29.1 µM [activator, single point] | –
Cc1cc(N2CCOCC2)n2ncc(-c3ccc(Cl)cc3)c2n1 | active: 20.6 µM | –
COc1ccc(Cn2c(=O)[nH]c3cc(C(=O)N4CCN(c5ccccc5OC)CC4)ccc3c2=O)cc1 | inconclusive: 20.6 µM [activator, partial curve, poor fit] | –
Cc1ccc(-n2ncc3c(=O)[nH]c(SCC(=O)N4CCN(c5ccccc5)CC4)nc32)cc1 | – | inactive: -3.31%
Cc1ccc(C2NC(c3ccc(C)cc3)C([N+](=O)[O-])C(C)(C)C2[N+](=O)[O-])cc1 (stereo unspecified) | inconclusive: 32.6 µM [activator, partial curve, poor fit] | –
CCCCC(=O)NC(=S)Nc1ccccc1N1CCCCC1 | inconclusive: 6.51 µM [activator, partial curve, poor fit] | –
Cc1cc(C(=O)CSc2nc3ccccc3n2C)c(C)n1C | inconclusive: 6.51 µM [activator, single point] | –
O=C(Nc1ccc(F)cc1F)c1csc(-c2ccncc2)n1 | inconclusive: 0.0046 µM [activator, full curve, poor fit] | –
C=C1C(=O)O[C@H]2[C@H]1[C@H](OC(=O)/C(C)=C\C)C[C@]1(CO1)[C@@H]1[C@H](OC(C)=O)C=C(C)[C@]21O | inconclusive: 23.1 µM [activator, single point] | –
CCNC(=O)COc1ccc(/C=C2\COc3ccccc3C2=O)cc1OC | inconclusive: 0.82 µM [activator, full curve, poor fit] | –
O=C(Nc1ccccc1)C1=C[C@H](C2CCCCC2)C[C@H](OCc2ccc(CO)cc2)O1 | – | inactive: -50.4% [at 9.22 µM]
O=C(c1cccc(S(=O)(=O)N2CCN(c3ccc(F)cc3)CC2)c1)N1CCCC(C(F)(F)F)C1 (stereo unspecified) | inconclusive: 25.9 µM [activator, partial curve, poor fit] | –
